Laboratory results from the supplement of paper PMC8256030.
Values joined by “and” are separate entries in the source; they are usually repeats but may differ in a detail not shown here. Identical values can stand only once. Counter-ions that a name gives are not always drawn. The list shows a part of the results. This data set is noisy: repeats of one test often differ as much as different tests do.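 HEK293T cells were given each compound shortly before transfection with a reporter in which red mCherry is followed by the SARS-CoV-2 frameshift element and then GFP in the −1 frame, so GFP appears only after frameshifting.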

test system: SARS-CoV-2 -1 PRF reporter mCherry-FSE-GFP(-1); experiment: percent effect, decrease of GFP/mCherry ratio (-1 PRF reporter) relative to controls; higher = stronger frameshift inhibition; conditions: 10 µM; 24 h; HEK293T

SMILES | percent effect
CCOC(=O)c1cnc2c(cnn2CC)c1NN=C(C)C [etazolate] | 1.57%
CO[C@H]1C[C@@H]2CC[C@@H](C)[C@@](O)(O2)C(=O)C(=O)N2CCCC[C@H]2C(=O)O[C@H]([C@H](C)C[C@@H]2CC[C@@H](OC(=O)C(C)(CO)CO)[C@H](OC)C2)CC(=O)[C@H](C)/C=C(\C)[C@@H](O)[C@@H](OC)C(=O)[C@H](C)C[C@H](C)/C=C/C=C/C=C/1C [Temsirolimus] | -2.45%
CC(C)(C)CC(C)(C)c1ccc(O)c(Cc2ccc(Cl)cc2Cl)c1 [clofoctol] | -3.93%
COc1ccc2[nH]cc(CCNC(C)=O)c2c1 [Melatonin] | -6.56%
CN(CCOc1ccc(CC2SC(=O)NC2=O)cc1)c1ccccn1 (stereo not drawn) [Rosiglitazone maleate] | -2.38%
CS(=O)(=O)Nc1ccc([N+](=O)[O-])cc1Oc1ccccc1 [nimesulide] | -0.457% and -0.437%
Cc1[nH]c(=O)c(C#N)cc1-c1ccc2nccn2c1 [olprinone] | -4.97%
OCCN1CCN(CCCN2c3ccccc3Sc3ccc(Cl)cc32)CC1 [perphenazine] | -4.48%
